PMC9598925, “Synthetic Amphipathic β-Sheet Temporin-Derived Peptide with Dual Antibacterial and Anti-Inflammatory Activities” (Antibiotics, 2022)
Where two headings read alike, the source gives them in different places. Non-standard residues stand in square brackets, D forms with d. Residues, ends and D or L forms follow the SMILES beside them. Nle = CCCC[C@H](N)C(=O)O

Tests used:
[1] = Membrane fluidity, Laurdan Generalized Polarization; conditions: PBS pH 7.4, unloaded LUVs −0.18 ± 0.01
[2] = as above; conditions: PBS pH 7.4, unloaded LUVs −0.07 ± 0.01
[3] = unloaded LUVs −0.18 ± 0.01, calculated previously ref 27, cited from earlier work
[4] = unloaded LUVs −0.07 ± 0.01, calculated previously ref 27, cited from earlier work

Compound | GP Value ([1]; LUVs DOPG/CL + 5 μM cmpd) | GP Value ([1]; LUVs DOPG/CL + 30 μM cmpd) | GP Value ([2]; LUVs DOPG/DOPE/CL + 5 μM cmpd) | GP Value ([2]; LUVs DOPG/DOPE/CL + 30 μM cmpd) | GP Value ([3]; LUVs DOPG/CL + 5 μM cmpd) | GP Value ([3]; LUVs DOPG/CL + 30 μM cmpd) | GP Value ([4]; LUVs DOPG/DOPE/CL + 5 μM cmpd) | GP Value ([4]; LUVs DOPG/DOPE/CL + 30 μM cmpd)
CCCC[C@H](N)C(=O)N[C@@H](Cc1ccccc1)C(=O)N[C@H](C(=O)N1CCC[C@H]1C(=O)N[C@@H](Cc1c[nH]c2ccccc12)C(=O)N[C@@H](Cc1ccccc1)C(=O)N[C@@H](CO)C(=O)N[C@@H](CCCCN)C(=O)N[C@@H](Cc1ccccc1)C(=O)N[C@H](CC(C)C)C(=O)N[C@H](CCCCN)C(=O)N[C@@H](CCCNC(=N)N)C(=O)N[C@H](C(=O)N[C@@H](CC(C)C)C(N)=O)[C@@H](C)CC)C(C)C [[Nle^1, DLeu^9, DLys^10]TL] (H-[Nle]FVPWFSKF[dL][dK]RIL-NH2) | 0.03 ± 0.01 | 0.29 ± 0.03 | 0.05 ± 0.01 | 0.13 ± 0.03 |  |  |  | 
FVPWFSKFlkRIL [[DLeu^9, DLys^10]TL] |  |  |  |  | −0.06 ± 0.01 | 0.26 ± 0.02 | 0.09 ± 0.02 | 0.11 ± 0.02
